Results are given in words; binding and its absence hold for the method and conditions named. Some binding calls cover weakened binding; strength is not graded here.
Legend:
[1] = target: T1, Full length human integrin alpha4beta7 (expressed in 293 cells, purified by Fib504 affinity chromatography) (human) (UniProt P13612+P26010); assay: phage-displayed Fab on immobilized alpha4beta7
[2] = target: T1, Full length human integrin alpha4beta7 (expressed in 293 cells, purified by Fib504 affinity chromatography) (human); assay: phage binding assay (OD): Fab displayed on phage, immobilised alpha4beta7, albumin as control coat
[3] = target: T1, Full length human integrin alpha4beta7 (expressed in 293 cells, purified by Fib504 affinity chromatography) (human); assay: SPR (BIAcore), Fab
[4] = target: human alpha4beta7 receptor on RPMI8866 cells (human) (UniProt P13612+P26010); assay: cell adhesion blocking assay: BCECF-labelled RPMI8866 cells (alpha4beta7) adhering to plate-coated human MAdCAM-1-Ig, antibody titrated
[5] = target: alphaEbeta7 on alphaEbeta7-transfected 293 cells (human) (UniProt P38570+P26010); assay: summary of the cell adhesion inhibition assays; alphaEbeta7

Amino acid sequences for entries named in this document (tags omitted). A change or cut given only in a name is not applied to a line headed by its entry.
UniProt P13612: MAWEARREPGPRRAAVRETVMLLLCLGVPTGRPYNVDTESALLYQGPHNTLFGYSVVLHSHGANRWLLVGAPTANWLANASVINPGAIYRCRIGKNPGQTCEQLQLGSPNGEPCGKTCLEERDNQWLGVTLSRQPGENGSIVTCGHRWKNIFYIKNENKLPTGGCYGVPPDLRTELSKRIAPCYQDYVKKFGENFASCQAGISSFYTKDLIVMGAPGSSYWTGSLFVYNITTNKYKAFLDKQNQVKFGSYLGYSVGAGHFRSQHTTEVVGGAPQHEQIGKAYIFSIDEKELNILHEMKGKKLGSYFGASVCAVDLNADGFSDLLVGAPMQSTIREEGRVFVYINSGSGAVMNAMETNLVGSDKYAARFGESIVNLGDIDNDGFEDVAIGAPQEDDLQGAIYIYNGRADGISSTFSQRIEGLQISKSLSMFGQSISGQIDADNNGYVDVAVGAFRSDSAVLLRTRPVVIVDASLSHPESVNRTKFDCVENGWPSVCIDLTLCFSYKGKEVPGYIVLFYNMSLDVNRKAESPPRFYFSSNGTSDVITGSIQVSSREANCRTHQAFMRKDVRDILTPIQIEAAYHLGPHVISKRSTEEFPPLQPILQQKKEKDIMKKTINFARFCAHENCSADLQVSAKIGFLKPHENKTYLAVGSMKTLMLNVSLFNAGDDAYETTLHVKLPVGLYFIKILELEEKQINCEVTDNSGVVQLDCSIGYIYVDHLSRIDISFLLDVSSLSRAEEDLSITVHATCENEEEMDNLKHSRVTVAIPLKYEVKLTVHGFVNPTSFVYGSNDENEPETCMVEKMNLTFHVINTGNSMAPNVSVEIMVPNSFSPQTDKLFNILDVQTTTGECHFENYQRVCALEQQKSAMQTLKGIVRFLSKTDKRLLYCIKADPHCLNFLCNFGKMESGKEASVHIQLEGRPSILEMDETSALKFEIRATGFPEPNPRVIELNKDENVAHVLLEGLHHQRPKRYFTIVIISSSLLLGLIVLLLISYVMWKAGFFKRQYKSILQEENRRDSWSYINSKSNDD
UniProt P26010: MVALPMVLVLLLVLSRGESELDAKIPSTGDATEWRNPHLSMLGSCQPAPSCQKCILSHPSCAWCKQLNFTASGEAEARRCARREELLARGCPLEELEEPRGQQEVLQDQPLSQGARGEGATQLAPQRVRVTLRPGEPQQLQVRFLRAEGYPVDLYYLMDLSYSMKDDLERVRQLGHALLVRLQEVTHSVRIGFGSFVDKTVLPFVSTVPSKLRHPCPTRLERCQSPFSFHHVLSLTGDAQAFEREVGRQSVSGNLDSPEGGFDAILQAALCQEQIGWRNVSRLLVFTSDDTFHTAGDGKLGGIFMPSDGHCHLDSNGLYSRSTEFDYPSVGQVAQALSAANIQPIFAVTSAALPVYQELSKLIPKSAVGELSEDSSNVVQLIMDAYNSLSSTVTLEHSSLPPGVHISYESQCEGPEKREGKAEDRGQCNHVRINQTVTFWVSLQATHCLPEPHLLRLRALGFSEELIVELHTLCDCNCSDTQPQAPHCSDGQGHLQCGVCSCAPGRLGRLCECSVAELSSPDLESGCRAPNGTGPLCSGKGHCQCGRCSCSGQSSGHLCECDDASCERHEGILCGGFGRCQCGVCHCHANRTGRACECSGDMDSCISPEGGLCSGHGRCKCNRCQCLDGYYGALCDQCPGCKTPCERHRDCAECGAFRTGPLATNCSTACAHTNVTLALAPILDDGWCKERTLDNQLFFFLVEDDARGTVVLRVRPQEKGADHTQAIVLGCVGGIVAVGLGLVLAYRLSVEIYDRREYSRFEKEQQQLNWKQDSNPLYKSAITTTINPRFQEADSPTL
UniProt P38570: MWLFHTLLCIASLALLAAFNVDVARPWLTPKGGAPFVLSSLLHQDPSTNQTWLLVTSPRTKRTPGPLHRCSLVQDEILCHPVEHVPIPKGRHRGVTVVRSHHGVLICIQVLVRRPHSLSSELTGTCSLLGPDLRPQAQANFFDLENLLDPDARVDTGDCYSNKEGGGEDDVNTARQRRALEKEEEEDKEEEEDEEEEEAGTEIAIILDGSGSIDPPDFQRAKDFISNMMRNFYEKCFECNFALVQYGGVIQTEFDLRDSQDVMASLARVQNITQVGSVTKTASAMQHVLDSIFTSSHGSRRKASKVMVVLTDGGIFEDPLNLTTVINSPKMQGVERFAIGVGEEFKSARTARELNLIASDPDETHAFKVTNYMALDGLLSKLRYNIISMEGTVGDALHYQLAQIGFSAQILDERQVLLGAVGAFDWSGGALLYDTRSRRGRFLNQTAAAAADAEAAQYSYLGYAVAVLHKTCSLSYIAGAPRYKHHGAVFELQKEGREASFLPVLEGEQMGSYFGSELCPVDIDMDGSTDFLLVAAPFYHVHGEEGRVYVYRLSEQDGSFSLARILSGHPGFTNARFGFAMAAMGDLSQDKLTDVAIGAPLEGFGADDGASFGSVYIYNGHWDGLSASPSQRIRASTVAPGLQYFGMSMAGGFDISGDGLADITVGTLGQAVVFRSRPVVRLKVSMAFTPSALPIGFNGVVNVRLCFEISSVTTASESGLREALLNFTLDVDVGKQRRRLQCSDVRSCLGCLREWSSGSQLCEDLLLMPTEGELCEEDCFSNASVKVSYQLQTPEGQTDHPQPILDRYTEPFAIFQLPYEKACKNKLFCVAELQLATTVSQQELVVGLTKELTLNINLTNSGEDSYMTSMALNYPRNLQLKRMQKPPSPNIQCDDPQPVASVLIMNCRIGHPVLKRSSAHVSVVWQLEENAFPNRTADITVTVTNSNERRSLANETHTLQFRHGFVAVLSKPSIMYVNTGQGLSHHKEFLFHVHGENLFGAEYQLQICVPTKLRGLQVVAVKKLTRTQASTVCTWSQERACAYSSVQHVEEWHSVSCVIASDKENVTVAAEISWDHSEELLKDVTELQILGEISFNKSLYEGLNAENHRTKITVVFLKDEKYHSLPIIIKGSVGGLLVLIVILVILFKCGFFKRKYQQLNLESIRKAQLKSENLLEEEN

Binder	binding [3]	binding [5]	further results
Fib504K-RF graft (Fib504K graft in the RF acceptor framework), Fab (Fab, V domains shown, number not given; also called hu504K-RF graft) VH: EVQLVESGGGLVQPGGSLRLSCAASGFFITNNYWGWVRQAPGKGLEWVGYISYSGSTSYNPSLKSRFTISRDTSKNTFYLQMNSLRAEDTAVYYCAMTGSSGYFDFWGQGTLVTVSS VL: DIQMTQSPSSLSASVGDRVTITCRASESVDTYLHWYQQKPGKAPKLLIKYASQSISGVPSRFSGSGSGTDFTLTISSLQPEDFATYYCQQGNSLPNTFGQGTKVEIKR			binding [1]: binds; binding [2]: binds
Variant hu504.5, Fab (Fab, name in Kabat numbering, V domains shown, Tested as Fab; also called Variant 504.5) VH: EVQLVESGGGLVQPGGSLRLSCAASGFFITNNYWGWVRQAPGKGLEWVGYISYSGSTSYNPSLKSRFTISRDTSKNTFYLQMNSLRAEDTAVYYCAMTGSSGYFDFWGQGTLVTVSS VL: DIQMTQSPSSLSASVGDRVTITCRASESVDSLLHWYQQKPGKAPKLLIKYASQSISGVPSRFSGSGSGTDFTLTISSLQPEDFATYYCQQGNSLPNTFGQGTKVEIKR	binds		
Variant hu504.16, Fab (Fab, name in Kabat numbering, V domains shown, Clone from the Fib504K-RF library with an HVR-L1 change; Tested as Fab; also called Variant 504.16) VH: EVQLVESGGGLVQPGGSLRLSCAASGFFITNNYWGWVRQAPGKGLEWVGYISYSGSTSYNPSLKSRFTISRDTSKNTFYLQMNSLRAEDTAVYYCAMTGSSGYFDFWGQGTLVTVSS VL: DIQMTQSPSSLSASVGDRVTITCRASESVDTLLHWYQQKPGKAPKLLIKYASQSISGVPSRFSGSGSGTDFTLTISSLQPEDFATYYCQQGNSLPNTFGQGTKVEIKR	binds		
Variant hu504.32, Fab (Fab, V domains shown, T31D and Y32L in the light chain of the hu504 Kgraft; Tested as Fab; also called Variant 504.32; humanized variant 504.32) VH: EVQLVESGGGLVQPGGSLRLSCAASGFFITNNYWGWVRQAPGKGLEWVGYISYSGSTSYNPSLKSRFTISRDTSKNTFYLQMNSLRAEDTAVYYCAMTGSSGYFDFWGQGTLVTVSS VL: DIQMTQSPSSLSASVGDRVTITCRASESVDDLLHWYQQKPGKAPKLLIKYASQSISGVPSRFSGSGSGTDFTLTISSLQPEDFATYYCQQGNSLPNTFGQGTKVEIKR	binds		
Rat Fib504 (antibody FIB504.64 produced by hybridoma ATCC HB-293) (antibody, V domains shown, Whole rat antibody in the cell adhesion assays; also called rat anti-mouse beta7 antibody) VH: EVQLQESGPGLVKPSQSLSLTCSVTGFFITNNYWGWIRKFPGNKMEWMGYISYSGSTSYNPSLKSRISITRDTSKNQFFLQLNSVTTEDTATYYCAMTGSSGYFDFWGPGTMVTVSS VL: DVVMTQSPATLSVTPGERISLSCRASESVDTYLHWYQQKPNESPRLLIKYASQSISGIPSRFSGSGSGTDFTLSINGVELEDLSIYYCQQGNSLPNTFGAGTKLELKR			binding [4]: binds
Variant hu504.32, IgG (antibody, V domains shown, methionine at heavy chain position 94; also called hu504.32M; 504.32M) VH: EVQLVESGGGLVQPGGSLRLSCAASGFFITNNYWGWVRQAPGKGLEWVGYISYSGSTSYNPSLKSRFTISRDTSKNTFYLQMNSLRAEDTAVYYCAMTGSSGYFDFWGQGTLVTVSS VL: DIQMTQSPSSLSASVGDRVTITCRASESVDDLLHWYQQKPGKAPKLLIKYASQSISGVPSRFSGSGSGTDFTLTISSLQPEDFATYYCQQGNSLPNTFGQGTKVEIKR		binds	
Variant hu504.5, IgG (antibody, name in Kabat numbering, V domains shown) VH: EVQLVESGGGLVQPGGSLRLSCAASGFFITNNYWGWVRQAPGKGLEWVGYISYSGSTSYNPSLKSRFTISRDTSKNTFYLQMNSLRAEDTAVYYCAMTGSSGYFDFWGQGTLVTVSS VL: DIQMTQSPSSLSASVGDRVTITCRASESVDSLLHWYQQKPGKAPKLLIKYASQSISGVPSRFSGSGSGTDFTLTISSLQPEDFATYYCQQGNSLPNTFGQGTKVEIKR		binds	
Variant hu504.16, IgG (antibody, name in Kabat numbering, V domains shown) VH: EVQLVESGGGLVQPGGSLRLSCAASGFFITNNYWGWVRQAPGKGLEWVGYISYSGSTSYNPSLKSRFTISRDTSKNTFYLQMNSLRAEDTAVYYCAMTGSSGYFDFWGQGTLVTVSS VL: DIQMTQSPSSLSASVGDRVTITCRASESVDTLLHWYQQKPGKAPKLLIKYASQSISGVPSRFSGSGSGTDFTLTISSLQPEDFATYYCQQGNSLPNTFGQGTKVEIKR		binds	
